Data from patent US11135163B2, “Peptide hydrogel properties and its applications” (Kansas State University Research Foundation, priority 2014, dated 2021).

Assay: Hydrogel formation and gelation time sweep of h9e with commercial mouse blood
Description: About 150 μL of the appropriate wt % of peptide solution was added to 150 μL of commercial mouse blood in a small vial. The mixture was pipetted 5 times to ensure continuity and observed for visual hydrogel formation. Visual observation of hydrogel formation was recorded via a Nikon Coolpix L22 camera (FIG. 9).
Hydrogel gelation time sweep (instantaneous): A time sweep was conducted on the hydrogel and commercial mouse blood mixture. 150 μL of the appropriate wt % of peptide solution was added to 150 μL of commercial mouse blood in a small vial. The mixture was pipetted about 5 times to ensure continuity and added to the rheometer for evaluation. Both storage and loss moduli, G′ and G″ respectively, of the h9e/blood hydrogel were determined using a C-VOR 150 rheometer (Malvern Instruments, Malvern, Worcestershire, United Kingdom). A plate 20 mm in diameter was used with 1% strain and frequency of 1 Hz at a 37° C. temperature for 30 minutes.
Hydrogel stability gelation time sweep (24 hours post gelatinization): A time sweep was conducted on the hydrogel and commercial mouse blood mixture. 24 hours post gelation. 150 μL of the appropriate wt % of peptide solution was added to 150 μL of commercial mouse blood in a small vial. The mixture was pipetted about 5 times to ensure continuity and stored in a CO2 incubator for 24 hours (Nuaire, Plymouth, Minn., United States). After 24 hours of a hydrogel formation, the hydrogel was added to the rheometer for evaluation. Both storage and loss moduli, G′ and G″ respectively, of the h9e/blood hydrogel was determined using a C-VOR 150 rheometer (Malvern Instruments, Malvern, Worcestershire, United Kingdom). A plate 20 mm in diameter was used with 1% strain and frequency of 1 Hz at a 37° C. temperature for 30 minutes

## H-FLIVIGSIIGPGGDGPGGD-NH2 [h9e, FLIVIGSIIGPGGDGPGGD]
1% and 2% wt h9e
  visual hydrogel formation: form a stable hydrogel within a few min
1%, 2%, 3%, 4%, 5% wt h9e solution with commercial mouse blood
  visual hydrogel formation: formed a visible hydrogel
4% and 5% wt h9e
  visual hydrogel formation: stable hydrogels instantly
All h9e % wt concentrations except 1% wt
  time to gel strength above 100 Pa: 1 to 3 s
